Results are given in words; binding and its absence hold for the method and conditions named. In cells and extracts the contact can be indirect. Some binding calls cover weakened binding; strength is not graded here. Sequences can lack the tags named with a protein.

Amino acid sequences for entries named in this document (tags omitted).
UniProt P38420: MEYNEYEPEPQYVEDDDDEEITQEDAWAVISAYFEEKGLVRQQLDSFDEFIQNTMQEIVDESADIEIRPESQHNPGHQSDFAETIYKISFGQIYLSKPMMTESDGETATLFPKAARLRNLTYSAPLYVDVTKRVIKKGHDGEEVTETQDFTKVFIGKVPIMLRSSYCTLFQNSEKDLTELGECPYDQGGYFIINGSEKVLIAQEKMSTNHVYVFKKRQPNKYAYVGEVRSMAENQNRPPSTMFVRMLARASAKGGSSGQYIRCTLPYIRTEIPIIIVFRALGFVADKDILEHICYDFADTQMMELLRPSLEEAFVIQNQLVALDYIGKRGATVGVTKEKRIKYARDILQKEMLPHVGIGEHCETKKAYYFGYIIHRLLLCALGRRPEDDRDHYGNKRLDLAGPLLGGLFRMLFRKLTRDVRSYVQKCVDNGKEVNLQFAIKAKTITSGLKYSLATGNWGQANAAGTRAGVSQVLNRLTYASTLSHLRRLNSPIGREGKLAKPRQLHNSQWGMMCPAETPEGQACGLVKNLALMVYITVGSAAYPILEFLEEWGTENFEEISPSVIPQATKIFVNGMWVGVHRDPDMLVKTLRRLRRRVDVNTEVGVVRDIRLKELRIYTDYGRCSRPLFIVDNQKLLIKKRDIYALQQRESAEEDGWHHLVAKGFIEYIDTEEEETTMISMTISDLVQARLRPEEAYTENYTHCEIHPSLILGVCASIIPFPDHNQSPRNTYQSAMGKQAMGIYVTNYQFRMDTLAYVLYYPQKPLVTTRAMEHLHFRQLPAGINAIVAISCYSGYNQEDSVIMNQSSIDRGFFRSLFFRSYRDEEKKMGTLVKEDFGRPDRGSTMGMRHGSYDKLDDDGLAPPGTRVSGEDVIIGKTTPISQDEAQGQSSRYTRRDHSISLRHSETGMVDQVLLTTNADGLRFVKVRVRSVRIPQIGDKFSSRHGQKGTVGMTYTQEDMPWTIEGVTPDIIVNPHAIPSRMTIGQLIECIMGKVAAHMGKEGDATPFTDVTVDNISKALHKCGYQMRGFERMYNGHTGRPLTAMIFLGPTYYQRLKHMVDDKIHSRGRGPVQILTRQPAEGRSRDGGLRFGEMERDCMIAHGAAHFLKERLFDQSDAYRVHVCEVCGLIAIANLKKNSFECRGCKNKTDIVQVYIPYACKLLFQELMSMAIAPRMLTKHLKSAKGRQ
UniProt Q9SP32: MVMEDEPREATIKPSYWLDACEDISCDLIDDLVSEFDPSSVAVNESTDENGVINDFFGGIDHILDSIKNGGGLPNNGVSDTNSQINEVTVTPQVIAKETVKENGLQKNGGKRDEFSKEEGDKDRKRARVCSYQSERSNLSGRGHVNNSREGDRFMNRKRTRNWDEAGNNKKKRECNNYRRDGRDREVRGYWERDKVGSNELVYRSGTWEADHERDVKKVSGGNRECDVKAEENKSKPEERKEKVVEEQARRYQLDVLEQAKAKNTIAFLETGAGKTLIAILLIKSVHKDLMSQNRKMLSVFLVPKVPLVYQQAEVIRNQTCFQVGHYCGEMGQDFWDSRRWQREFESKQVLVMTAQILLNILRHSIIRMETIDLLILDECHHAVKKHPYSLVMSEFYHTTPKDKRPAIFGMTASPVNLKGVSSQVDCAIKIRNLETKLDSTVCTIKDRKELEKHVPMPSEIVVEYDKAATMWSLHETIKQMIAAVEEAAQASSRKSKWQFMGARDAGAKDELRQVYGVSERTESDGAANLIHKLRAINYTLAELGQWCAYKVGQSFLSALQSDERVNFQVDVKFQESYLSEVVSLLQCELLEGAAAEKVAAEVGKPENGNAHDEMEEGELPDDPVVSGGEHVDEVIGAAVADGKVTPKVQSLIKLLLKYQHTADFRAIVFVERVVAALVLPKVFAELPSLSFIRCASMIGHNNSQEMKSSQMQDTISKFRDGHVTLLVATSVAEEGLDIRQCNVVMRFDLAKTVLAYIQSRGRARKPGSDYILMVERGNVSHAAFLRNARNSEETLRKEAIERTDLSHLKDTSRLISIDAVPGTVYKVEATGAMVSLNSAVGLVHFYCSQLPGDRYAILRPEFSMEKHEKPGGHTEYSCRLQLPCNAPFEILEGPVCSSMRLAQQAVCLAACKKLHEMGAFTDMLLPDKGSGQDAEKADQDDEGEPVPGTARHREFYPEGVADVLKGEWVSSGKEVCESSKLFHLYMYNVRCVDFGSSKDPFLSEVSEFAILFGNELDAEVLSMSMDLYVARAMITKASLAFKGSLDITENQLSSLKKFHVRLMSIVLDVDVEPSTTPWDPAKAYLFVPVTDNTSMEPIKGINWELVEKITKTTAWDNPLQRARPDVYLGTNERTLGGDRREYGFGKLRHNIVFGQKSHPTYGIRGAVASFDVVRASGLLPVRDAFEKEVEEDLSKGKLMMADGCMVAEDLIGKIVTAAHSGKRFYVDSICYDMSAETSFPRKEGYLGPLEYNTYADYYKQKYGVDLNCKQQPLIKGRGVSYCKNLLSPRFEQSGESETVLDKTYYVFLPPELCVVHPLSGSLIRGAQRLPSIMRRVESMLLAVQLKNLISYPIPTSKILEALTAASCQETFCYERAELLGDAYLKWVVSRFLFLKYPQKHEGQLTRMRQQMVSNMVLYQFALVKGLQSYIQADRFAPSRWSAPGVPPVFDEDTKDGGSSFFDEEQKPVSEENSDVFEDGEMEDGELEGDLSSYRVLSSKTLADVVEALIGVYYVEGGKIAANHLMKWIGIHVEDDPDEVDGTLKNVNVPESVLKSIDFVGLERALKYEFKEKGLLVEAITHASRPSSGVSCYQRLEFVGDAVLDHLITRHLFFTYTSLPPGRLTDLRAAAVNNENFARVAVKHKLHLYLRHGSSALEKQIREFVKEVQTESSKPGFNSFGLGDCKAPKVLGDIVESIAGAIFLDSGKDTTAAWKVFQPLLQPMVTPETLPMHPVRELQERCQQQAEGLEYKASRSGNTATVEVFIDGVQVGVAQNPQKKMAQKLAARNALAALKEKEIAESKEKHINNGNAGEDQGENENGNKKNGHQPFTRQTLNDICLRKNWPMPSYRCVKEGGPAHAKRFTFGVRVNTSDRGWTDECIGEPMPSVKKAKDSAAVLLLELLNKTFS
UniProt Q9LXW7: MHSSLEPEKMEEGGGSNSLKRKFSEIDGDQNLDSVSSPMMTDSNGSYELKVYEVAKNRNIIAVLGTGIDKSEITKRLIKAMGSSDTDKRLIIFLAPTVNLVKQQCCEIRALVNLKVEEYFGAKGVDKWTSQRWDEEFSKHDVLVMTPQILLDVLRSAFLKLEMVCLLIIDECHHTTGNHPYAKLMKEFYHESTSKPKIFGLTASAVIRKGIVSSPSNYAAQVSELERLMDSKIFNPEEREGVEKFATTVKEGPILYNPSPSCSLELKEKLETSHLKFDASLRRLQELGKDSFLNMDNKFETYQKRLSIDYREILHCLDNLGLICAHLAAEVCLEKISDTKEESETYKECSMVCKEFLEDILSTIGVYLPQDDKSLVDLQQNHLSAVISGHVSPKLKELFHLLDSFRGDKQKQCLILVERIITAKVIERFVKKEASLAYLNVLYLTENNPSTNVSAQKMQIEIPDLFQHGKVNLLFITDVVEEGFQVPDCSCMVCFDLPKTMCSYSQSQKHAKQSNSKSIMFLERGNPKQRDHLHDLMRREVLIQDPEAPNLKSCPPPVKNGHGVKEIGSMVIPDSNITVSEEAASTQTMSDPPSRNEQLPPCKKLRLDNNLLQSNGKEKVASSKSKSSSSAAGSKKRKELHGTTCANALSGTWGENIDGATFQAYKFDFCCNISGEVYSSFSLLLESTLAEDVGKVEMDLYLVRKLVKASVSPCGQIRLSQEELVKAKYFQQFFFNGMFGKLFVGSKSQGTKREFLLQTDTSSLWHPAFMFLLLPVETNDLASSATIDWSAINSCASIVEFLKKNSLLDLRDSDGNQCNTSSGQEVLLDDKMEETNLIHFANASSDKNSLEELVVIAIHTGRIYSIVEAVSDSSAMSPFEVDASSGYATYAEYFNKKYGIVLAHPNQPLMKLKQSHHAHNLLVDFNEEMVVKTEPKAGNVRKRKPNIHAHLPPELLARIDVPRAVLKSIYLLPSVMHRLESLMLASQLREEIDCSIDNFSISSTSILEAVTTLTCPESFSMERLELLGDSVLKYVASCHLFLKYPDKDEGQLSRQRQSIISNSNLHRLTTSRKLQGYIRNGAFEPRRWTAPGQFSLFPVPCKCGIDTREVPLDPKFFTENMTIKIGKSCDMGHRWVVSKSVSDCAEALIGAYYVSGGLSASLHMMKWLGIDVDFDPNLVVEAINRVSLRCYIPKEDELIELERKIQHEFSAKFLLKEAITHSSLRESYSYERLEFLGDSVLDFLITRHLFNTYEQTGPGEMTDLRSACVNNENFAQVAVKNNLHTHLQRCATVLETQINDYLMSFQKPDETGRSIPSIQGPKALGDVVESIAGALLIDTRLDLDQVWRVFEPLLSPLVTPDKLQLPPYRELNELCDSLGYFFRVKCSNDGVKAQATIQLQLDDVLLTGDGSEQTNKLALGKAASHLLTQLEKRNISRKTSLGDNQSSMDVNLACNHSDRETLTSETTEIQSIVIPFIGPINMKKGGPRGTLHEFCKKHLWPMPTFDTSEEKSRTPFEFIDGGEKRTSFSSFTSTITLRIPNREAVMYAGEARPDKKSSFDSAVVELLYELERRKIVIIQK
UniProt P84634: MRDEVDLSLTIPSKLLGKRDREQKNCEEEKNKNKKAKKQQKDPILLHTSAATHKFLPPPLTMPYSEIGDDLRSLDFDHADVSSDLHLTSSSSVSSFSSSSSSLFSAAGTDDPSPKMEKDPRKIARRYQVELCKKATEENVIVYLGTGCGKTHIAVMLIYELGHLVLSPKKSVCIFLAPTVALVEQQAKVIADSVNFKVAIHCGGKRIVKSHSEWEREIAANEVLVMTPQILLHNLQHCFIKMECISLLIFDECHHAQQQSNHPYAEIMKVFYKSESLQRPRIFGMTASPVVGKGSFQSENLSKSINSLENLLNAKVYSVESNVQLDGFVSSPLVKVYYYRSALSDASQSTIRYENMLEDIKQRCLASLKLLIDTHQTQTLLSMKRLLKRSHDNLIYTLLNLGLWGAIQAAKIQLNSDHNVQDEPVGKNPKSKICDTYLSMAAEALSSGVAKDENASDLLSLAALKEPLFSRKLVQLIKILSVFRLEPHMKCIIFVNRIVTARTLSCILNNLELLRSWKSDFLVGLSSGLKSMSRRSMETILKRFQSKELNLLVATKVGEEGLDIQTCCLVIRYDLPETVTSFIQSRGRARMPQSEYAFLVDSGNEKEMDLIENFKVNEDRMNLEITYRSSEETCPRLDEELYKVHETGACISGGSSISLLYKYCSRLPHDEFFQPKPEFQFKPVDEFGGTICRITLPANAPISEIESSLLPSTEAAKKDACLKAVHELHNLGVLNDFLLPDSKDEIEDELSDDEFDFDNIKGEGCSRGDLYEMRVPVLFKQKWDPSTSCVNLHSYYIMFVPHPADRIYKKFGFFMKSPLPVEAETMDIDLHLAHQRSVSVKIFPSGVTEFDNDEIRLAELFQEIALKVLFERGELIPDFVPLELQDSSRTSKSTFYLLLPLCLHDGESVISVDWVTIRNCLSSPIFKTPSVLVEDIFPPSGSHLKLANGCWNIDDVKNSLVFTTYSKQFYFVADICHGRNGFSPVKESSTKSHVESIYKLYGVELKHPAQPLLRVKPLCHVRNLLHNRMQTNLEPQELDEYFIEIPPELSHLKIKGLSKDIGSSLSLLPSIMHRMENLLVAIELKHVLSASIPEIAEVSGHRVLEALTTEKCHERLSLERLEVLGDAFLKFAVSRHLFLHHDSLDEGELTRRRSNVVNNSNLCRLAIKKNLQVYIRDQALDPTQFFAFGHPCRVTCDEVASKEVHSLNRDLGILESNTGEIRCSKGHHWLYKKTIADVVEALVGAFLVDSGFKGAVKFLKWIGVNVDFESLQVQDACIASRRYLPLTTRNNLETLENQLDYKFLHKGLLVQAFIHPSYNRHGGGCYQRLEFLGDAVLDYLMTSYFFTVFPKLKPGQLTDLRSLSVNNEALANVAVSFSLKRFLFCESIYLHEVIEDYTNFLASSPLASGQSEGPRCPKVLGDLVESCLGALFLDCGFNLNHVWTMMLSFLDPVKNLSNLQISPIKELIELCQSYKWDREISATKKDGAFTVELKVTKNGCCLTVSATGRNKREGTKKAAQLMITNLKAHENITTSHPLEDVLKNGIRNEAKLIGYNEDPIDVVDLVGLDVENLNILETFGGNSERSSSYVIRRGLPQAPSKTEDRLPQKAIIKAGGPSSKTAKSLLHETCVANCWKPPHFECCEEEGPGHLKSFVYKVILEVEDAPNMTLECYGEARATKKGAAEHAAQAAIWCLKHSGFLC

Assay [1] concerns the target T1, PRL1-YFP expressed from the pPRL1::PRL1-YFP transgene in the prl1-2 complementation line (Arabidopsis (Col)) (UniProt Q42384).
T1 sequence: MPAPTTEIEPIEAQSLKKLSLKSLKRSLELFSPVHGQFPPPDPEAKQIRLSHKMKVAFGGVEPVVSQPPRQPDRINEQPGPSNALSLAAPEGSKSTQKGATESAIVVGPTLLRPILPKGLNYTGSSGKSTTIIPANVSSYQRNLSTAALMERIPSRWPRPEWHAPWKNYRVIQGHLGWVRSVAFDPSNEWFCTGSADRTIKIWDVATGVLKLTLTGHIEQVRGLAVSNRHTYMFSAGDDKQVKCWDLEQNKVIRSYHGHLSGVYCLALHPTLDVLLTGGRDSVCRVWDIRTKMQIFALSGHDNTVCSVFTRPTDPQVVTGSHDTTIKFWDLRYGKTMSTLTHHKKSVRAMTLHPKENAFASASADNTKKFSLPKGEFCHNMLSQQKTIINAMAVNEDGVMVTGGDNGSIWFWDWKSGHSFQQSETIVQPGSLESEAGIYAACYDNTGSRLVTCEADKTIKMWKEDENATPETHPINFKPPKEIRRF
Description: co-IP; protein extracts of transgenic plants harbouring pPRL1::PRL1-YFP; anti-YFP or anti-RPB2 antibodies coupled to protein G agarose beads, 4 h at 4°C; five washes; western blot.

The target in assay [2] is T2, PRL1-YFP transiently expressed in N. benthamiana (Arabidopsis (Col)) (UniProt Q42384).
T2 sequence: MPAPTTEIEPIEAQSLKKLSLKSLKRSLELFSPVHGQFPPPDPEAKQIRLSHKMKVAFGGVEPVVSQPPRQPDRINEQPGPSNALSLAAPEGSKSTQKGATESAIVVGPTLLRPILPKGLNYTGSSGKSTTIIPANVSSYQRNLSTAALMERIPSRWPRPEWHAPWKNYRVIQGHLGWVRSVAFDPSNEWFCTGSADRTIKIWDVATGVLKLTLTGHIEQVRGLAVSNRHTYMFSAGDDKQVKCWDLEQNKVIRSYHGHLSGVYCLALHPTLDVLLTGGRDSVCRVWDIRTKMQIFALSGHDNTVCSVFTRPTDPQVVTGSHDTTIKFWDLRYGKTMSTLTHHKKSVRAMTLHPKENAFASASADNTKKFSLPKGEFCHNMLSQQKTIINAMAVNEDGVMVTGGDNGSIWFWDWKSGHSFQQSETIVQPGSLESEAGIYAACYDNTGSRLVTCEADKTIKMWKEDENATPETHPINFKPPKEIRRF
Description: co-IP; PRL1-YFP or YFP co-expressed with DCL1-MYC or SE-MYC in N. benthamiana; extracts incubated with anti-YFP or anti-MYC antibodies coupled to protein G agarose beads; western blot.

The target in assay [3] is RPB2, the second largest subunit of Pol II (Arabidopsis (endogenous in transgenic plants)) (UniProt P38420). The assay is described as follows: co-IP; protein extracts of transgenic plants harbouring pPRL1::PRL1-YFP; anti-YFP or anti-RPB2 antibodies coupled to protein G agarose beads, 4 h at 4°C; five washes; western blot.
The target in assay [4] is DCL1 fused with the N-terminal fragment of Venus (nVenus) (Arabidopsis) (UniProt Q9SP32). Description: split reporter; BiFC: paired cCFP and nVenus constructs co-infiltrated in N. benthamiana leaves; yellow fluorescence read by confocal microscopy; 30 nuclei examined for each pair.
For assay [5], the target named is T3, Cell Division Cycle 5 (CDC5) fused with the N-terminal fragment of Venus (nVenus) (Arabidopsis) (UniProt P92948).
T3 sequence: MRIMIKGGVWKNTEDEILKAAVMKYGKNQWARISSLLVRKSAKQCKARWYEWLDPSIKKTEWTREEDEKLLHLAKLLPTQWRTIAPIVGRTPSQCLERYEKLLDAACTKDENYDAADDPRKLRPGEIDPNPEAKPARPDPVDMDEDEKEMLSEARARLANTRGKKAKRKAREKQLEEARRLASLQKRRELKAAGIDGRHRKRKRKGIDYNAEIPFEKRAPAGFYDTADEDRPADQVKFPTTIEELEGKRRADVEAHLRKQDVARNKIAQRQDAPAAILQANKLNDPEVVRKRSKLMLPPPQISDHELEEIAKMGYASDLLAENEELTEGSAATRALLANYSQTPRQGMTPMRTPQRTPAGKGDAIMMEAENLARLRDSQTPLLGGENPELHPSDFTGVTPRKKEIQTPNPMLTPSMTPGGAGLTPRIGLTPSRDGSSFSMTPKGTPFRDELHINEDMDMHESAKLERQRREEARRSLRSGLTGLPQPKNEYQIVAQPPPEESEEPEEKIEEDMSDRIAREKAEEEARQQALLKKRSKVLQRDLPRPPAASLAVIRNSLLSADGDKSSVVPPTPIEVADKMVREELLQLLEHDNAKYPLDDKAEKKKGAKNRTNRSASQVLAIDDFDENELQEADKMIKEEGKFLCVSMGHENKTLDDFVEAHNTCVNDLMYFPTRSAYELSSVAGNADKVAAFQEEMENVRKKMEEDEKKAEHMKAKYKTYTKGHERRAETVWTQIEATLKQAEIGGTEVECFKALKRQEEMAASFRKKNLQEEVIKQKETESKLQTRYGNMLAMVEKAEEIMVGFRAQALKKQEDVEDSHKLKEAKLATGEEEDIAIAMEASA
The description is as above.

Assay [6] has as its target T4, SERRATE (SE) fused with the N-terminal fragment of Venus (nVenus) (Arabidopsis) (UniProt Q9ZVD0).
T4 sequence: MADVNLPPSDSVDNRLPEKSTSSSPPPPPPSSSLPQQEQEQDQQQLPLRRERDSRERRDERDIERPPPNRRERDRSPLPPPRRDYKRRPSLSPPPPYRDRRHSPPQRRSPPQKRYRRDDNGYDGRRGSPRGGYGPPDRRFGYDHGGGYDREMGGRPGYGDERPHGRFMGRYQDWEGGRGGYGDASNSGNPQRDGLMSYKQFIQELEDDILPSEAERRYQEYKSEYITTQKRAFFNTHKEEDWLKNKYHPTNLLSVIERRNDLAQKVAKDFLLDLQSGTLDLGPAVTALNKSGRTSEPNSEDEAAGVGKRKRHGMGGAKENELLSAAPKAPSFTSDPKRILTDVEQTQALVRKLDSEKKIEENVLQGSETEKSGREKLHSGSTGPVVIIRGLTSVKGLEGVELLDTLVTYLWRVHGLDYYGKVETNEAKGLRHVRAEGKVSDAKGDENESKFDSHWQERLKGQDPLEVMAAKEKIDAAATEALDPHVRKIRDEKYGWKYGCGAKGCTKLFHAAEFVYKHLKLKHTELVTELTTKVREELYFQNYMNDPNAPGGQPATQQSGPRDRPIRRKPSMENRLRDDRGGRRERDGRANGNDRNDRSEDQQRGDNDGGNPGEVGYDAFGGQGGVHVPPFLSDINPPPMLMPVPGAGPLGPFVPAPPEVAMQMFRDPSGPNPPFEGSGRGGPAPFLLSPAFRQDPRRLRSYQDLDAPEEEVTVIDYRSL
The assay is described as above.

Assay [7] deals with T5, HYPONASTIC LEAVES 1 (HYL1) fused with the N-terminal fragment of Venus (nVenus) (Arabidopsis) (UniProt O04492).
T5 sequence: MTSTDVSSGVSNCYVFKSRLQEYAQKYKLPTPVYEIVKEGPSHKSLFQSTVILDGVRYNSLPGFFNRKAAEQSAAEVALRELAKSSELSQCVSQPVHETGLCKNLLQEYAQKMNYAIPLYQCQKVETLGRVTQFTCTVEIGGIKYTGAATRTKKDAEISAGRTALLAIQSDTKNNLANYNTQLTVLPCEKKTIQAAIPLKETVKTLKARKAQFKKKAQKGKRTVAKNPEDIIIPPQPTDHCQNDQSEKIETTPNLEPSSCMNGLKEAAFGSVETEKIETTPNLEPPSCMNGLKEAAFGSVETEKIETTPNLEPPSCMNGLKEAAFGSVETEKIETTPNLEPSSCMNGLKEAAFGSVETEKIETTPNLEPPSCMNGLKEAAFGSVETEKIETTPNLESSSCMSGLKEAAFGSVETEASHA
Described as above.

For a further assay, the target named is DCL3-YFP (Arabidopsis) (UniProt Q9LXW7). Description: co-IP; E. coli protein extracts containing MBP-PRL1 or MBP mixed with N. benthamiana protein extracts containing DCL3-YFP, DCL4-YFP or YFP; IP with anti-YFP antibodies.
In a further assay the target is DCL4-YFP (Arabidopsis) (UniProt P84634). The description is as above.

Consider “RPB2, the second largest subunit of Pol II (from UniProt P38420 1-1188)”, for which, in assay [1], the binding result is reported as “binds”. Take “DCL1-MYC (from UniProt Q9SP32 1-1909) (enzyme)”: the binding entry in assay [2] is “binds”.

B1: SE-MYC (protein, UniProt Q9ZVD0 1-720)
chain: MADVNLPPSDSVDNRLPEKSTSSSPPPPPPSSSLPQQEQEQDQQQLPLRRERDSRERRDERDIERPPPNRRERDRSPLPPPRRDYKRRPSLSPPPPYRDRRHSPPQRRSPPQKRYRRDDNGYDGRRGSPRGGYGPPDRRFGYDHGGGYDREMGGRPGYGDERPHGRFMGRYQDWEGGRGGYGDASNSGNPQRDGLMSYKQFIQELEDDILPSEAERRYQEYKSEYITTQKRAFFNTHKEEDWLKNKYHPTNLLSVIERRNDLAQKVAKDFLLDLQSGTLDLGPAVTALNKSGRTSEPNSEDEAAGVGKRKRHGMGGAKENELLSAAPKAPSFTSDPKRILTDVEQTQALVRKLDSEKKIEENVLQGSETEKSGREKLHSGSTGPVVIIRGLTSVKGLEGVELLDTLVTYLWRVHGLDYYGKVETNEAKGLRHVRAEGKVSDAKGDENESKFDSHWQERLKGQDPLEVMAAKEKIDAAATEALDPHVRKIRDEKYGWKYGCGAKGCTKLFHAAEFVYKHLKLKHTELVTELTTKVREELYFQNYMNDPNAPGGQPATQQSGPRDRPIRRKPSMENRLRDDRGGRRERDGRANGNDRNDRSEDQQRGDNDGGNPGEVGYDAFGGQGGVHVPPFLSDINPPPMLMPVPGAGPLGPFVPAPPEVAMQMFRDPSGPNPPFEGSGRGGPAPFLLSPAFRQDPRRLRSYQDLDAPEEEVTVIDYRSL
For the molecule B1, the binding entry in assay [2] is given as “binds”.

B2: PRL1-YFP expressed from the pPRL1::PRL1-YFP transgene in the prl1-2 complementation line (protein, UniProt Q42384 1-486)
chain: MPAPTTEIEPIEAQSLKKLSLKSLKRSLELFSPVHGQFPPPDPEAKQIRLSHKMKVAFGGVEPVVSQPPRQPDRINEQPGPSNALSLAAPEGSKSTQKGATESAIVVGPTLLRPILPKGLNYTGSSGKSTTIIPANVSSYQRNLSTAALMERIPSRWPRPEWHAPWKNYRVIQGHLGWVRSVAFDPSNEWFCTGSADRTIKIWDVATGVLKLTLTGHIEQVRGLAVSNRHTYMFSAGDDKQVKCWDLEQNKVIRSYHGHLSGVYCLALHPTLDVLLTGGRDSVCRVWDIRTKMQIFALSGHDNTVCSVFTRPTDPQVVTGSHDTTIKFWDLRYGKTMSTLTHHKKSVRAMTLHPKENAFASASADNTKKFSLPKGEFCHNMLSQQKTIINAMAVNEDGVMVTGGDNGSIWFWDWKSGHSFQQSETIVQPGSLESEAGIYAACYDNTGSRLVTCEADKTIKMWKEDENATPETHPINFKPPKEIRRF
B2: in [3], the binding result was “binds”.

B3: PRL1 fused with the C-terminal fragment of cyan fluorescent protein (cCFP-PRL1) (protein, UniProt Q42384 1-486)
chain: MPAPTTEIEPIEAQSLKKLSLKSLKRSLELFSPVHGQFPPPDPEAKQIRLSHKMKVAFGGVEPVVSQPPRQPDRINEQPGPSNALSLAAPEGSKSTQKGATESAIVVGPTLLRPILPKGLNYTGSSGKSTTIIPANVSSYQRNLSTAALMERIPSRWPRPEWHAPWKNYRVIQGHLGWVRSVAFDPSNEWFCTGSADRTIKIWDVATGVLKLTLTGHIEQVRGLAVSNRHTYMFSAGDDKQVKCWDLEQNKVIRSYHGHLSGVYCLALHPTLDVLLTGGRDSVCRVWDIRTKMQIFALSGHDNTVCSVFTRPTDPQVVTGSHDTTIKFWDLRYGKTMSTLTHHKKSVRAMTLHPKENAFASASADNTKKFSLPKGEFCHNMLSQQKTIINAMAVNEDGVMVTGGDNGSIWFWDWKSGHSFQQSETIVQPGSLESEAGIYAACYDNTGSRLVTCEADKTIKMWKEDENATPETHPINFKPPKEIRRF
As for B3, the binding result in [4], in assay [5], in assay [6] and in [7] was “binds” in each case.

B4: recombined PRL1 fused with a maltose-binding protein at its N-terminus (MBP-PRL1) (protein, UniProt Q42384 1-486)
chain: MPAPTTEIEPIEAQSLKKLSLKSLKRSLELFSPVHGQFPPPDPEAKQIRLSHKMKVAFGGVEPVVSQPPRQPDRINEQPGPSNALSLAAPEGSKSTQKGATESAIVVGPTLLRPILPKGLNYTGSSGKSTTIIPANVSSYQRNLSTAALMERIPSRWPRPEWHAPWKNYRVIQGHLGWVRSVAFDPSNEWFCTGSADRTIKIWDVATGVLKLTLTGHIEQVRGLAVSNRHTYMFSAGDDKQVKCWDLEQNKVIRSYHGHLSGVYCLALHPTLDVLLTGGRDSVCRVWDIRTKMQIFALSGHDNTVCSVFTRPTDPQVVTGSHDTTIKFWDLRYGKTMSTLTHHKKSVRAMTLHPKENAFASASADNTKKFSLPKGEFCHNMLSQQKTIINAMAVNEDGVMVTGGDNGSIWFWDWKSGHSFQQSETIVQPGSLESEAGIYAACYDNTGSRLVTCEADKTIKMWKEDENATPETHPINFKPPKEIRRF
Turning to B4, the binding result with DCL3-YFP (Arabidopsis) and in the assay with DCL4-YFP (Arabidopsis) was “binds” in each case.
